Assay results published in publication PMC6335623, “A computationally designed binding mode flip leads to a novel class of potent tri-vector cyclophilin inhibitors” (Chemical Science, 2018).

Protein sequences, listed by entry. Tags and fused reporters are not part of them. Residues count along the entry.
UniProt P23284, 34-216: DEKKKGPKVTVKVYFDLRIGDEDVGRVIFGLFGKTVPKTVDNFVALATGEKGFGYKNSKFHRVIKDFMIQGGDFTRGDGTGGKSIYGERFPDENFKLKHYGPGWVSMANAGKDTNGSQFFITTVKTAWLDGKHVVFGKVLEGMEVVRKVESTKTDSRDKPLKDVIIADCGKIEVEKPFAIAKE

Target: T1, His-CypB (Homo sapiens, UniProt P23284)
T1 construct: made in house; host or cells: E. coli C41 BL21(DE3) ('C41 BL21(DH3)' [sic]); plasmid from the Edinburgh Protein Production Facility
Test: biochemical
Assay type: binding
Experimental: injection protocol (Fig. S9B). […]
using the same instrument parameters was performed (Fig. S9A).
Surface Plasmon Resonance (SPR)
SPR1 – SPR equipment and reagents
SPR measurements were performed on a BIAcore T200 instrument (GE Healthcare). Ni2+- nitrilotriacetic acid (NTA) sensor chips, 1-ethyl-3-(3- diaminopropyl) carbodiimide hydrochloride (EDC) and Nhydroxysuccinimide (NHS) were purchased from GE Healthcare.
SPR2 – Immobilization and covalent stabilizations of His-Cyps
Pure His-cyclophilins were immobilized and covalently stabilized on the NTA sensor chip according to the protocol described [Wear et al., 2017, FEBS OpenBio], using 200 nM concentrations of each protein, in Running Buffer (PBS, pH 7.4; 0.05% surfactant P20, 2% v/v ethanol; 50 µM EDTA), at 30 µl min-1 with 60 second contact times on the activated NTA surfaces.
(1 picture or pasted object on this page, not shown here) […]
Buffer (PBS, pH 7.4, 50 µM mM EDTA; 0.05 % v/v surfactant P20; 2 % v/ v ethanol), were injected over the sensor surface, at 100 µl.min -1 with a 90 s contact time and a 90 s dissociation time. […] The apparent on-rate (k+) and off-rate (k-) constants and the equilibrium dissociation constant (K d) were calculated from reference corrected sensorgrams by global fitting of a 1:1 binding model, including a mass transport term, using analysis software ( v.2.02, GE Healthcare) provided with the BIAcore T200 […]

- Kd: 200 ± 100 nM
Compound: Cn1nnc(CN(Cc2ccc(N)cc2)C(=O)NCC(=O)N2CCCC2c2ccccc2Br)n1 (stereo not shown) [Compound 15]
